No constants are given. Whether binding was seen depends on the method and setting. Some entries that bind do so weakly or less than the wild type.
Tests used:
[1] = molecular target: A. thaliana Light-dependent Protochlorophyllide OxidoReductase isoform C (AtPORC) (A. thaliana) (UniProt O48741); experiment: negative stain EM
[2] = molecular target: A. thaliana Light-dependent Protochlorophyllide OxidoReductase isoform A (AtPORA) (A. thaliana) (UniProt Q42536); experiment: negative stain EM

binding [1]	binding [2]	Binder
binds		A. thaliana Light-dependent Protochlorophyllide OxidoReductase isoform C (AtPORC) (enzyme, UniProt O48741 68-401) QTVTATPPANEASPEQKKTERKGTAVITGASSGLGLATAKALADTGKWHVIMACRNFLKAEKAARSVGMSKEDYTVMHLDLASLESVKQFVENFRRTEQPLDVLVCNAAVYQPTAKEPSFTAEGFEISVGTNHLGHFLLSRLLLDDLKKSDYPSKRMIIVGSITGNTNTLAGNVPPKANLGDLRGLASGLNGQNSSMIDGGEFDGAKAYKDSKVCNMLTMQELHRRYHEETGVTFASLYPGCIATTGLFREHIPLFRLLFPPFQKYITKGYVSEEEAGKRLAQVVSDPSLGKSGVYWSWNNNSSSFENQLSKEASDAEKAKKLWEVSEKLVGLA
	binds	A. thaliana Light-dependent Protochlorophyllide OxidoReductase isoform A (AtPORA) (enzyme, UniProt Q42536 70-405) QAIATSTPSVTKSSLDRKKTLRKGNVVVTGASSGLGLATAKALAETGKWHVIMACRDFLKAERAAQSAGMPKDSYTVMHLDLASLDSVRQFVDNFRRAEMPLDVLVCNAAVYQPTANQPTFTAEGFELSVGINHLGHFLLSRLLIDDLKNSDYPSKRLIIVGSITGNTNTLAGNVPPKANLGDLRGLAGGLNGLNSSAMIDGGDFVGAKAYKDSKVCNMLTMQEFHRRFHEDTGITFASLYPGCIATTGLFREHIPLFRTLFPPFQKYITKGYVSESEAGKRLAQVVADPSLTKSGVYWSWNKTSASFENQLSQEASDVEKARRVWEVSEKLVGLA
